Laboratory results reported in the supplement of paper PMC12819154, “High-throughput peptide-centric local stability assay extends protein–ligand identification to membrane proteins, tissues and bacteria” (Nature Structural & Molecular Biology, 2025).
Some of the results follow. Most entries show no effect beyond the scatter of the controls.

Sequences of proteins named here, by UniProt entry; tags and fusion partners are left off. A change or cut given only in a name is not applied to a line headed by its entry.
UniProt Q8K3K7: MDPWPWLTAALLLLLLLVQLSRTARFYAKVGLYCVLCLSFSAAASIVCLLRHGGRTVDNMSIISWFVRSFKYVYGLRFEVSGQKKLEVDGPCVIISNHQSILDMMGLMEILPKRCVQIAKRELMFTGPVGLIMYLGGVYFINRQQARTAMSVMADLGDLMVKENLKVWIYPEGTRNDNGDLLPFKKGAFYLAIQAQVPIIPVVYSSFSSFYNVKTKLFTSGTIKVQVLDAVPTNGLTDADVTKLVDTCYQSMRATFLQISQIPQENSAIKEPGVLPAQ
UniProt Q8R0Y6: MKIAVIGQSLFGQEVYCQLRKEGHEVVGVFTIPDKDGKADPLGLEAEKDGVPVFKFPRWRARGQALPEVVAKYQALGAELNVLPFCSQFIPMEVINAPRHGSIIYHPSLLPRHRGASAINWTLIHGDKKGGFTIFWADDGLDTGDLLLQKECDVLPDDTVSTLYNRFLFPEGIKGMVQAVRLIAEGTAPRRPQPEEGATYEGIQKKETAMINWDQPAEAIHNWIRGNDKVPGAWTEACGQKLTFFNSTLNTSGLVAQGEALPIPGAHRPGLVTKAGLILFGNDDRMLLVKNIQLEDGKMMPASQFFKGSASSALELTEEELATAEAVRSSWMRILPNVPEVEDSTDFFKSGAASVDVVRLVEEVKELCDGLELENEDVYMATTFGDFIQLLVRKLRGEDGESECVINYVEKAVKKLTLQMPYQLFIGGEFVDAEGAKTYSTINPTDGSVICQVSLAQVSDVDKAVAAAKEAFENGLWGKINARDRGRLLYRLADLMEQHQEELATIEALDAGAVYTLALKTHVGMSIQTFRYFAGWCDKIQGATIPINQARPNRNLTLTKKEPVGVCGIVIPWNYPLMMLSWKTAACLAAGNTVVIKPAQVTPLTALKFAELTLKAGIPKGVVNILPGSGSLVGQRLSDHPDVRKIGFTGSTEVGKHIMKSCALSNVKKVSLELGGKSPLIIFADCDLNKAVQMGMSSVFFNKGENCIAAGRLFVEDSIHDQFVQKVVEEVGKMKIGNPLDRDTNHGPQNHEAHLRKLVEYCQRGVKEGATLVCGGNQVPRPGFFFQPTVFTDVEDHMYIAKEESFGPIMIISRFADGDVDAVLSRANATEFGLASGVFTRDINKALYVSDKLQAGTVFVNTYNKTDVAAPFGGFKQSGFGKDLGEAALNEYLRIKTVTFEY
UniProt Q8R2M2: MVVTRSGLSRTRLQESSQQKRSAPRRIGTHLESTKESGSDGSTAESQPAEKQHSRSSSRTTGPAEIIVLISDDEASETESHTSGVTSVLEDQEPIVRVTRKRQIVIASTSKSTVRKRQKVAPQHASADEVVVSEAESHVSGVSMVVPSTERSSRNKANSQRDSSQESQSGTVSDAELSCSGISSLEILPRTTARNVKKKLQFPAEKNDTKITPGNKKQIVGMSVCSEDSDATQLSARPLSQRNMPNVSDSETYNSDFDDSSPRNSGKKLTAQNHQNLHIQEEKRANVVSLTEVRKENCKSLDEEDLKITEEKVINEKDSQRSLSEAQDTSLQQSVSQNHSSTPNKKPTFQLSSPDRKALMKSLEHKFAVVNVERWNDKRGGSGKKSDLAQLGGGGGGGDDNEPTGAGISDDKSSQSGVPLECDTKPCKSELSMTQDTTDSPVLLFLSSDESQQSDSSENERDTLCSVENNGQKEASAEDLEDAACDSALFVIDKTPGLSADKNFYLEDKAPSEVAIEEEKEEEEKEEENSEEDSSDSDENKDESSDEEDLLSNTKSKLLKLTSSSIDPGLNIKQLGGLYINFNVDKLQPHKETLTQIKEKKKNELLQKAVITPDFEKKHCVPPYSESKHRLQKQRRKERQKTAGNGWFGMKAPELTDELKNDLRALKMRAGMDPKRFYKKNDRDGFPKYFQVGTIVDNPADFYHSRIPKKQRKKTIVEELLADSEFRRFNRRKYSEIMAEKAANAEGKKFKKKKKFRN
UniProt Q8VCH7: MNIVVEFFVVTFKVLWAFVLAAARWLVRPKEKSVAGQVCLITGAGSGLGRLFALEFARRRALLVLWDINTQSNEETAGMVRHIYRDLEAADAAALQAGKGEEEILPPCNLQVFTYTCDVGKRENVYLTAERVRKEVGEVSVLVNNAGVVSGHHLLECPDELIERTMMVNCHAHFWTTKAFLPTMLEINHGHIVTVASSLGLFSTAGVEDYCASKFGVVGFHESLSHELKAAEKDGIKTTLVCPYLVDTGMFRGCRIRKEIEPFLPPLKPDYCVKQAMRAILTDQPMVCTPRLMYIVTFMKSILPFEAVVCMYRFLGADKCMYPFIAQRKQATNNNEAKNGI
UniProt Q8JZZ0: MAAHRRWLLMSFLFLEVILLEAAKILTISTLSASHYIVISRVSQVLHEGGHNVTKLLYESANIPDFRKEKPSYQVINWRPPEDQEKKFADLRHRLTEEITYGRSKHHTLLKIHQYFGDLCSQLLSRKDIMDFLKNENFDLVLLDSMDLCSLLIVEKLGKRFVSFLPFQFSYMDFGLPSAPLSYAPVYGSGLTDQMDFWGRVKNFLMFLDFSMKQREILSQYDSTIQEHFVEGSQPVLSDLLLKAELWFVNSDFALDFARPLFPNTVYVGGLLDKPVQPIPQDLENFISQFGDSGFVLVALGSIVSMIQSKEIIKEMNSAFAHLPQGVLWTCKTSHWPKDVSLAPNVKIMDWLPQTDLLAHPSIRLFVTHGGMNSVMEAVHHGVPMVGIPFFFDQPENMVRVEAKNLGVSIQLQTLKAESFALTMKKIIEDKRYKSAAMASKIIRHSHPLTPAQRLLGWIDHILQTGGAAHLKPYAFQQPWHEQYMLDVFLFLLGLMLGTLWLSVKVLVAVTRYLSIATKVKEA
UniProt Q8K039: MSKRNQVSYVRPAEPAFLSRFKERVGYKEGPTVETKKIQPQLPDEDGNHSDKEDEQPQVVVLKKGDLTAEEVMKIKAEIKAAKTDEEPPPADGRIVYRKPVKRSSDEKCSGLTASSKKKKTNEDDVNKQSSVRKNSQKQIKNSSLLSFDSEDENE
UniProt Q8JZQ9, whole entry: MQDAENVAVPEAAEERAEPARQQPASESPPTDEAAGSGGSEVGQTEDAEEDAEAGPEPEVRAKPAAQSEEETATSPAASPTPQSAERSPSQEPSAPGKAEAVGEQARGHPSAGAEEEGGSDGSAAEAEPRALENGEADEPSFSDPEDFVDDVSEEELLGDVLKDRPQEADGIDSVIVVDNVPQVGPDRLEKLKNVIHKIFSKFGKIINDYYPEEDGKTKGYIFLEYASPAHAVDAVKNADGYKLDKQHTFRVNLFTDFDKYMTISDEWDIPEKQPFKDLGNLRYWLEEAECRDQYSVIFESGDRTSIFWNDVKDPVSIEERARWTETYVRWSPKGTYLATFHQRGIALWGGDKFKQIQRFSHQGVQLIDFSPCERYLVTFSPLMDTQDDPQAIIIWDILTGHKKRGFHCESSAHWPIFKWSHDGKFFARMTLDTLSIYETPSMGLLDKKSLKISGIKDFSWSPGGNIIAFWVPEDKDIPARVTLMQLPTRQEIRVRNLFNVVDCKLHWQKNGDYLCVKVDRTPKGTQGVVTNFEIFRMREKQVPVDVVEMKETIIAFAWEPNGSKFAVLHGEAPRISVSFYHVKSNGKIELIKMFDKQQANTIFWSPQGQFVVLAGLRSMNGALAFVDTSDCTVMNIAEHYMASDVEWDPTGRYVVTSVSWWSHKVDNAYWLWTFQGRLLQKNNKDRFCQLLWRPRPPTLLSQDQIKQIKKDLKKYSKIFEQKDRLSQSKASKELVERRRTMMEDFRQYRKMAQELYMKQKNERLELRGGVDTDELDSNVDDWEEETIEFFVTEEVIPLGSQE
UniProt Q8K4P0: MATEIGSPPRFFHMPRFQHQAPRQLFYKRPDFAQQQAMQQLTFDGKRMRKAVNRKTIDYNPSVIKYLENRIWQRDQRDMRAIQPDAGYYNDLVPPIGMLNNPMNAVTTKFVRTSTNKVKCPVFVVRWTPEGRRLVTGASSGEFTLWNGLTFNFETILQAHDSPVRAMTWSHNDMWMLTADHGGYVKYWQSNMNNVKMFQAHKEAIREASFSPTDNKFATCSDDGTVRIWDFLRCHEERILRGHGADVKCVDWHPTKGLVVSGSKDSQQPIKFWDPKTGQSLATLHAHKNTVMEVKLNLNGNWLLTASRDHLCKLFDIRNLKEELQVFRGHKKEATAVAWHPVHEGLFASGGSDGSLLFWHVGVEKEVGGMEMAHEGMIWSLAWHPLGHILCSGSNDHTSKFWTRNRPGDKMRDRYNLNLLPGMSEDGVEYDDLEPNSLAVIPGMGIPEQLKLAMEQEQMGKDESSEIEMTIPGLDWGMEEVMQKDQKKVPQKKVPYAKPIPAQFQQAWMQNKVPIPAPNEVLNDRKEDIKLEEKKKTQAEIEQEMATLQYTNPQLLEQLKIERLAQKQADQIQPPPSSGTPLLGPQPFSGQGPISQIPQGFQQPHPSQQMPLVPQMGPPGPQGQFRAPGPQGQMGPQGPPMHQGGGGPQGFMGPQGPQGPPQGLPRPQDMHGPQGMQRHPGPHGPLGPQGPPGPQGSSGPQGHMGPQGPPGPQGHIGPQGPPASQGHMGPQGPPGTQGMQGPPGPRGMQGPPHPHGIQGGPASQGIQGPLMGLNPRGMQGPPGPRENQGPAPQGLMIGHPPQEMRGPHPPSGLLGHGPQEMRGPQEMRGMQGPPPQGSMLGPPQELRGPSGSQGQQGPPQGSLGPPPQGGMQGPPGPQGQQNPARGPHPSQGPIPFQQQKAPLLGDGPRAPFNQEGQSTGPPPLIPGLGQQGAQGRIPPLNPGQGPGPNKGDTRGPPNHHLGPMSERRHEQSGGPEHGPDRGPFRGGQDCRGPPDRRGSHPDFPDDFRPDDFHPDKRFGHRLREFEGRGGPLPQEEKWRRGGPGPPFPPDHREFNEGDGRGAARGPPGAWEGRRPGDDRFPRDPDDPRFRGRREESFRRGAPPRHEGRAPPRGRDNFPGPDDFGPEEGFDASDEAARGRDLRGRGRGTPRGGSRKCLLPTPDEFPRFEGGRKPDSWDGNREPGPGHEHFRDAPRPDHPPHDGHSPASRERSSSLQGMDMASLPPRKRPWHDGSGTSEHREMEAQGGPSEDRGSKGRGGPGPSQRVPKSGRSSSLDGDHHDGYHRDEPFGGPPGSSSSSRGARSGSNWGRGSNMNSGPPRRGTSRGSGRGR
UniProt Q8K0G8: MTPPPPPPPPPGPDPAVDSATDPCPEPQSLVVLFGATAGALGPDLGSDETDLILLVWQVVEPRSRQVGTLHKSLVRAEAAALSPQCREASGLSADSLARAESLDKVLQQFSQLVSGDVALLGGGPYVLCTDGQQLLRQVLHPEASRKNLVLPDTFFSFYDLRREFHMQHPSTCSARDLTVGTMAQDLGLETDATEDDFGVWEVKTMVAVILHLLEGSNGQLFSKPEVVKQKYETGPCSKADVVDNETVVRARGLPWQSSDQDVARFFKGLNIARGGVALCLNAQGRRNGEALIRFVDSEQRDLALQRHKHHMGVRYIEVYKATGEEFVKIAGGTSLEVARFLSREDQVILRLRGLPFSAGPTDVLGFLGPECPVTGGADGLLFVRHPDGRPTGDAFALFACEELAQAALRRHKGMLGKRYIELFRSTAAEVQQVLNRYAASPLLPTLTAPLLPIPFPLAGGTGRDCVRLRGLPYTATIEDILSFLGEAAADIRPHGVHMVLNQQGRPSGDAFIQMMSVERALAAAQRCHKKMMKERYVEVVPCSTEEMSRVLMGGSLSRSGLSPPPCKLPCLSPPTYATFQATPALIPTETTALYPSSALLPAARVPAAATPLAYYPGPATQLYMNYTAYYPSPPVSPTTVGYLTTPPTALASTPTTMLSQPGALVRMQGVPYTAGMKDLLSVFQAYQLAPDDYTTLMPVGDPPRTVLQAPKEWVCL
UniProt Q8K1M6, whole entry: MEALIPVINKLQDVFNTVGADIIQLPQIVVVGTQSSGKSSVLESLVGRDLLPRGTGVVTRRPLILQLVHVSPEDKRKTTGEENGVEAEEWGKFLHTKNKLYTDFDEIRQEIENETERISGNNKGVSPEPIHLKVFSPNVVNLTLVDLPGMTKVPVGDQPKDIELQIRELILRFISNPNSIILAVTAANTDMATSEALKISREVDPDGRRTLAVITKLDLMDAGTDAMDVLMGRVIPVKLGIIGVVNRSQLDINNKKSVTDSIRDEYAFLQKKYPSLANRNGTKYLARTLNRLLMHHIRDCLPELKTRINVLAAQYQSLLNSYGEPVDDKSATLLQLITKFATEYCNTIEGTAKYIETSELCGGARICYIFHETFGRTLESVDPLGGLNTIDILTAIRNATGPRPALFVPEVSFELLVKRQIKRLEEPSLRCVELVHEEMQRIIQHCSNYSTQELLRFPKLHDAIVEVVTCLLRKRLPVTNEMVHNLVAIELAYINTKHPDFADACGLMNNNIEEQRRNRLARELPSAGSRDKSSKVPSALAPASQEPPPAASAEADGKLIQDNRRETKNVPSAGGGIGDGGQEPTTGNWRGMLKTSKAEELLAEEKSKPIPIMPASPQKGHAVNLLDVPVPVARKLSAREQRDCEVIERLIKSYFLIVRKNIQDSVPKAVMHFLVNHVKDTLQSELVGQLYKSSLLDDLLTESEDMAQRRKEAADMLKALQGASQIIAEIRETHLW

Each target was assayed with CN[C@@H]1C[C@H]2O[C@@](C)([C@@H]1OC)n1c3ccccc3c3c4c(c5c6ccccc6n2c5c31)C(=O)NC4 [staurosporine] (assay: log2 fold change of pooled soluble protein (PISA), ligand vs vehicle (log2 ratio); higher = more thermally stabilized). Settings: ligand concentration: 20 uM; assay format: PISA pool 52.9/55.5/58.6 C.

Row | Target | log2 fold change of pooled soluble protein
1 | UniProt Q8K3W3 | 0.114
2 | UniProt Q8K4L3 | 0.0416
3 | UniProt Q8K297 | 0.147
4 | UniProt Q8K3K7 | 0.07
5 | UniProt Q8R0Y6 | -0.0917
6 | UniProt Q8R2M2 | -0.0555
7 | UniProt Q8VCH7 | 0.0877
8 | UniProt Q8R0P4 | 0.0687
9 | UniProt Q8R0F3 | 0.221
10 | UniProt Q8R2Q8 | 0.0254
11 | UniProt Q8JZZ0 | 0.00677
12 | UniProt Q8K039 | 0.038
13 | UniProt Q8JZQ9 | -0.0402
14 | UniProt Q8R0W6 | 0.742
15 | UniProt Q8K4P0 | 0.0227
16 | UniProt Q8JZQ2 | -0.0731
17 | UniProt Q8R2Q4 | -0.0707
18 | UniProt Q8R0N6 | -0.0654
19 | UniProt Q8CJ61 | 0.0865

Row | Target | log2 fold change of pooled soluble protein
20 | UniProt Q8R0A0 | -0.125
21 | UniProt Q8R0H9 | 0.0446
22 | UniProt Q8VC28 | 0.0885
23 | UniProt Q8VBX6 | -0.19
24 | UniProt Q8K0G8 | -0.201
25 | UniProt Q8K1M6 | 0.253
26 | UniProt Q8K2H1 | 0.208
27 | UniProt Q8VC97 | 0.193
28 | UniProt Q8R2E9 | -0.0578
29 | UniProt Q8R1T4 | 0.185
30 | UniProt Q8K327 | 0.577
31 | UniProt Q8K182 | 0.127
32 | UniProt Q8CJF9 | 0.2
33 | UniProt Q8VBT2 | -0.0636
34 | UniProt Q8K3W0 | 0.126
35 | UniProt Q8R5H1 | -0.00435
36 | UniProt Q8R3Q6 | -0.00809
37 | UniProt Q8R149 | -0.087

Exported as a markdown table: entries from further up

| Row | Target | log2 fold change of pooled soluble protein |
| --- | --- | --- |
| 17 | UniProt Q8R2Q4 | -0.0707 |
| 30 | UniProt Q8K327 | 0.577 |
| 36 | UniProt Q8R3Q6 | -0.00809 |
